Measured data: PubChem BioAssay AID652237 (Broad Institute, 2013)
Of all reagents, 1 (14%) were called active. 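Only yes/no calls were deposited; the ATP values and statistics behind them are not available.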 Unmarked entries are inactive. Not stated in the record: the amount of reagent.

- Aim: 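Tests if knock-down of candidate compound targets copies its beta-cell protection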 (follow-up of hits)
- System: INS-1E rat insulinoma beta-cell line
- Reagents: siRNA against rat genes
- Duration: about 120 h (72 h knock-down, then 48 h cytokines)
- Treatment: cytokine mixture for 48 h; composition and doses not stated
- Measurement: 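Luminescent measure of cellular ATP after cytokine exposure, with each knock-down compared to neutral control wells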
- Hit rule: 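a knock-down is active if its ATP level rises significantly over neutral control wells, meaning cytokine damage was prevented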

Kpna4 gave significant ATP rise over control no significant ATP rise over neutral control.
With knock-down of Xpo1, the record shows significant ATP rise over control no significant ATP rise over neutral control.
Depletion of Mcm6 came out at: significant ATP rise over control no significant ATP rise over neutral control.
Gapdh scored significant ATP rise over control no significant ATP rise over neutral control.
Knock-down of Ipo9 gave: significant ATP rise over control no significant ATP rise over neutral control.
Silencing of Usp9x gave: significant ATP rise over control significant ATP rise over neutral control (protection from cytokine death) (active).
Against Blvrb, the entry reads significant ATP rise over control no significant ATP rise over neutral control.
